# Laboratory results taken from article PMC3592802.
# Sequences of proteins named here, by UniProt entry; tags and fusion partners are left off. A change or cut given only in a name is not applied to a line headed by its entry.
# UniProt P70478: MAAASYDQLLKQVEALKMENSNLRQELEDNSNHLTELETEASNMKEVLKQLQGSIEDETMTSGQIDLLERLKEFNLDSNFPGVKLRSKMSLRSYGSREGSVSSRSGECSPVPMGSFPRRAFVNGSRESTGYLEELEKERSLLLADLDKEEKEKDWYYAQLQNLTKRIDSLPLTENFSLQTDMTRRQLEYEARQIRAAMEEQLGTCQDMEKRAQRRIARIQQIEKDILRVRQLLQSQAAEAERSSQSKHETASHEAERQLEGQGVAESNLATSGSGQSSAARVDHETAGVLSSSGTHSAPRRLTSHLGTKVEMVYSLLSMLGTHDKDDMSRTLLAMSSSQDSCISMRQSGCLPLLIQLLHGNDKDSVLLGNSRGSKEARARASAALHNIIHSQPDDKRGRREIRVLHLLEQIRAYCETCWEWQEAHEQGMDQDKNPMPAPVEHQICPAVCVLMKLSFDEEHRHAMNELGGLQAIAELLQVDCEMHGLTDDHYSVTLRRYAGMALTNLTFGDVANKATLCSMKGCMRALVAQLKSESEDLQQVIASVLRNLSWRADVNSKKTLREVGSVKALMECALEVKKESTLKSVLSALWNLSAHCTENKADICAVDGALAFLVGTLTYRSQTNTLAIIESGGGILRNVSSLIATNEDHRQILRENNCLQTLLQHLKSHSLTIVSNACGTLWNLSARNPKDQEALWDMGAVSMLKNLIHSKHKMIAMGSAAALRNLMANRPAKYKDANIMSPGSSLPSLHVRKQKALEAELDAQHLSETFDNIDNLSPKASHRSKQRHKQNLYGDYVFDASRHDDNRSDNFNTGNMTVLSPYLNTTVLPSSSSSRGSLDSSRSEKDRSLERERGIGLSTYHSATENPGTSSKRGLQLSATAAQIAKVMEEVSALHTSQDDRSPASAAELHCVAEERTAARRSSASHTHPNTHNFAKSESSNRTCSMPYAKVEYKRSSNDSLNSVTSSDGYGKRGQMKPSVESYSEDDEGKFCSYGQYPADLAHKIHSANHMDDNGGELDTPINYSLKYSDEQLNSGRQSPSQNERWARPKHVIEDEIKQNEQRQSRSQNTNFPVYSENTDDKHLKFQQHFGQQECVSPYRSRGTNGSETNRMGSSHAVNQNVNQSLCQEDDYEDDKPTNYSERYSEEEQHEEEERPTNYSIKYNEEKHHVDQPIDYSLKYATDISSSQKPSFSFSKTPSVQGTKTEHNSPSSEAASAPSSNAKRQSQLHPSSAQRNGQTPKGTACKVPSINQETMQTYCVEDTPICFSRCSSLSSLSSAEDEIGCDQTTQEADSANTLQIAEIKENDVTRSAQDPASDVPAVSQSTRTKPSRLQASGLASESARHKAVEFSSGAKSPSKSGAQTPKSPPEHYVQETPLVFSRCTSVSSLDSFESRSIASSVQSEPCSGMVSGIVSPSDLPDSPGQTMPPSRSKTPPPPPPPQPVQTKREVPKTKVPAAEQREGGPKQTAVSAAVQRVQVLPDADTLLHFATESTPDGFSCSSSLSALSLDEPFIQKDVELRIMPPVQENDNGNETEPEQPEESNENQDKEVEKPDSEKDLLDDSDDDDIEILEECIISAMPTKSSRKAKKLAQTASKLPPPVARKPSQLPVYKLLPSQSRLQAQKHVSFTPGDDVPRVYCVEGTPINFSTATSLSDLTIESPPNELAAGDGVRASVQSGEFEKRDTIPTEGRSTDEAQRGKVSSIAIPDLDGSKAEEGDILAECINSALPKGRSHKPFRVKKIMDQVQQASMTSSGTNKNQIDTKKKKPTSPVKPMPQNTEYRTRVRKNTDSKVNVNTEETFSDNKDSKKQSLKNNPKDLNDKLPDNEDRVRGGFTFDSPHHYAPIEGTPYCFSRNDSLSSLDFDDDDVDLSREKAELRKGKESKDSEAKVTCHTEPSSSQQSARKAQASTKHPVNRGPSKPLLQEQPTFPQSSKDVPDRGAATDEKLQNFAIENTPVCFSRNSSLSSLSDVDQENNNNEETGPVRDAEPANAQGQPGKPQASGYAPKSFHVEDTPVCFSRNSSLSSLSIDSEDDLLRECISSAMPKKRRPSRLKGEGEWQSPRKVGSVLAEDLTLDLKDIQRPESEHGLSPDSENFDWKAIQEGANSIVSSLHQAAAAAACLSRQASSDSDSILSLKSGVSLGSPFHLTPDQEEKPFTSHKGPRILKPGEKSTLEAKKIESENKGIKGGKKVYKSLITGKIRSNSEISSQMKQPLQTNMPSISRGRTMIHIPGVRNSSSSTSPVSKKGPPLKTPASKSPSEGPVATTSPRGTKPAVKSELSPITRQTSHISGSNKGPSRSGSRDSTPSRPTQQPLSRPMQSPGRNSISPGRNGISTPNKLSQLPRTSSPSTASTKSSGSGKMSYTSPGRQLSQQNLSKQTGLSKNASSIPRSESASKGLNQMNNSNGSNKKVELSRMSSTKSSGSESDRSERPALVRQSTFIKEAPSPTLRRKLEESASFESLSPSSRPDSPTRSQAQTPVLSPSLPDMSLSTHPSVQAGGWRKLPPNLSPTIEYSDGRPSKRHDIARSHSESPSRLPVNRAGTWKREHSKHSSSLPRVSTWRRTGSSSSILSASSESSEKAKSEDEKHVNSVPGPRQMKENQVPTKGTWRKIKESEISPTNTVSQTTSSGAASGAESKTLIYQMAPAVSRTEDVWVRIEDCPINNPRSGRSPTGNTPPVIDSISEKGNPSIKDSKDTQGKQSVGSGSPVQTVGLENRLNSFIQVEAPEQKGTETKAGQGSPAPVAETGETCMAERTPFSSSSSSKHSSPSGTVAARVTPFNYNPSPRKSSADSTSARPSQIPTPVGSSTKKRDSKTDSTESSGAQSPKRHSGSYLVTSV
# UniProt P25054: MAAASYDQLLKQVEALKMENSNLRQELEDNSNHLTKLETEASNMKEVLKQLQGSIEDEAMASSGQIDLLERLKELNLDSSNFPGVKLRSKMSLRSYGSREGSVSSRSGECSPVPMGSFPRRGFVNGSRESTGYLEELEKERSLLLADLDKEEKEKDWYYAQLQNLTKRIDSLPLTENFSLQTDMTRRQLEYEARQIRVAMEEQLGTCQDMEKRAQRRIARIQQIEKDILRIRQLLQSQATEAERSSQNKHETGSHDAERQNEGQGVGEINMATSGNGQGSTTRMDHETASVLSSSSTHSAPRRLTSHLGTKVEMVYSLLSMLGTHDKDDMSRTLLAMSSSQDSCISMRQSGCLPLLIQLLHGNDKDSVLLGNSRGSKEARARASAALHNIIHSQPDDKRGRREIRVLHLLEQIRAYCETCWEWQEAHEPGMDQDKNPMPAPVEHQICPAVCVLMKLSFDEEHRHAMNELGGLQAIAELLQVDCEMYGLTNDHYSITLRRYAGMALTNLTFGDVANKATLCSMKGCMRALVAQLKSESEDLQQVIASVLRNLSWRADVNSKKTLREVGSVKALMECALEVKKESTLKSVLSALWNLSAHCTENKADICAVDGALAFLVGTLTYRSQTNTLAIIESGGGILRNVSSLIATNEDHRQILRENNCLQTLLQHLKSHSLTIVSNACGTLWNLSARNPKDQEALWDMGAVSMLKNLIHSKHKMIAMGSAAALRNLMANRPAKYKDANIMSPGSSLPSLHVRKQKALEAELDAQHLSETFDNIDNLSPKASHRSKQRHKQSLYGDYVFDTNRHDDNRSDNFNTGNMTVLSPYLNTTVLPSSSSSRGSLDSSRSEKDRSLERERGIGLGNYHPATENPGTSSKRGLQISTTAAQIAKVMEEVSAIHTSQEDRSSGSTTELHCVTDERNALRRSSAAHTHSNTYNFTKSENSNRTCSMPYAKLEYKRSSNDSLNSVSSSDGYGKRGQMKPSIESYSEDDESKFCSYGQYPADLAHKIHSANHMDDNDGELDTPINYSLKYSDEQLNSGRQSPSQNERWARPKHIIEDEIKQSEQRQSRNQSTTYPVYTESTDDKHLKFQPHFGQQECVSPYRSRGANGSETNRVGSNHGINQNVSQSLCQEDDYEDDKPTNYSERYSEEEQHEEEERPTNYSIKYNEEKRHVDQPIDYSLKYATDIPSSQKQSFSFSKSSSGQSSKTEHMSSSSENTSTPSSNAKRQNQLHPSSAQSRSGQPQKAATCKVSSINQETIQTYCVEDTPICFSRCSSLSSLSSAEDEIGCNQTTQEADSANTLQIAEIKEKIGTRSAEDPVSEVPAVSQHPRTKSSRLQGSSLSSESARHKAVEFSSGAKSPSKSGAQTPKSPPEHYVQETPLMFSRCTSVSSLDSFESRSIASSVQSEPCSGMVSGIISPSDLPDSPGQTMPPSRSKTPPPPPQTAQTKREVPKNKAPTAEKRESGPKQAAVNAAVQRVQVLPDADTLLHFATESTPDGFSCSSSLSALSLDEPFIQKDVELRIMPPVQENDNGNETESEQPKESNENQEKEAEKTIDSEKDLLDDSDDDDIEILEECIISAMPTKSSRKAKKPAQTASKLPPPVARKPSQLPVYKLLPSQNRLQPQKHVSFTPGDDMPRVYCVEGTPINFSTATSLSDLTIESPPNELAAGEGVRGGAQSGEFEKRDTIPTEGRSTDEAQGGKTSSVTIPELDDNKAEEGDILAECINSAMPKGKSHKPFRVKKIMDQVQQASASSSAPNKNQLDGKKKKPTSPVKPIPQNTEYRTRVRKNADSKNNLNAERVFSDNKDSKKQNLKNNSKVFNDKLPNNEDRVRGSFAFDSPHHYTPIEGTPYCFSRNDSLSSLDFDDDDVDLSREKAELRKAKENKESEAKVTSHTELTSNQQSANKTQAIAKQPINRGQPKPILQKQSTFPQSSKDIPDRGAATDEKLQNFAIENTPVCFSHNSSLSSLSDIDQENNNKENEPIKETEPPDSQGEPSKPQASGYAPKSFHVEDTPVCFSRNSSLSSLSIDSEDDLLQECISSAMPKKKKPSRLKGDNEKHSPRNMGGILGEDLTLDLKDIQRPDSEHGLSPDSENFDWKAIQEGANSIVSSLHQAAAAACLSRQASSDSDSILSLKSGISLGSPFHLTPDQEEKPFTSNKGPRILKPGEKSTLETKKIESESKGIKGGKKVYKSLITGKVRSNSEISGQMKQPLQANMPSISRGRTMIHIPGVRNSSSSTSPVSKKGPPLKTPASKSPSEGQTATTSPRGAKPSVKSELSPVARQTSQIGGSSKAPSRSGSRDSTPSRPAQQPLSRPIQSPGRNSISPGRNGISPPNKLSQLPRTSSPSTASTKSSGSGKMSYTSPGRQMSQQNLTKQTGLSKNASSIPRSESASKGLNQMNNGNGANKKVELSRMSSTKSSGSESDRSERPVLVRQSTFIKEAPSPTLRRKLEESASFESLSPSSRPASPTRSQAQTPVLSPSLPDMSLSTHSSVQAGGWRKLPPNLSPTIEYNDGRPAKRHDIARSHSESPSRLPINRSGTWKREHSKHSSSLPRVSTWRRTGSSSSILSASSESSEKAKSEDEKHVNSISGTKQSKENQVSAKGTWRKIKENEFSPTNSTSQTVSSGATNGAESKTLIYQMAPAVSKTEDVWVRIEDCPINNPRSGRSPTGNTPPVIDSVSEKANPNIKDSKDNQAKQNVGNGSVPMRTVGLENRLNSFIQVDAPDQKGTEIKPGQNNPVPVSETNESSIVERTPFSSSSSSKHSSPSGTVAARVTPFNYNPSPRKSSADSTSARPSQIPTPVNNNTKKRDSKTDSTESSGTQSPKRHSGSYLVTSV
# UniProt Q05655: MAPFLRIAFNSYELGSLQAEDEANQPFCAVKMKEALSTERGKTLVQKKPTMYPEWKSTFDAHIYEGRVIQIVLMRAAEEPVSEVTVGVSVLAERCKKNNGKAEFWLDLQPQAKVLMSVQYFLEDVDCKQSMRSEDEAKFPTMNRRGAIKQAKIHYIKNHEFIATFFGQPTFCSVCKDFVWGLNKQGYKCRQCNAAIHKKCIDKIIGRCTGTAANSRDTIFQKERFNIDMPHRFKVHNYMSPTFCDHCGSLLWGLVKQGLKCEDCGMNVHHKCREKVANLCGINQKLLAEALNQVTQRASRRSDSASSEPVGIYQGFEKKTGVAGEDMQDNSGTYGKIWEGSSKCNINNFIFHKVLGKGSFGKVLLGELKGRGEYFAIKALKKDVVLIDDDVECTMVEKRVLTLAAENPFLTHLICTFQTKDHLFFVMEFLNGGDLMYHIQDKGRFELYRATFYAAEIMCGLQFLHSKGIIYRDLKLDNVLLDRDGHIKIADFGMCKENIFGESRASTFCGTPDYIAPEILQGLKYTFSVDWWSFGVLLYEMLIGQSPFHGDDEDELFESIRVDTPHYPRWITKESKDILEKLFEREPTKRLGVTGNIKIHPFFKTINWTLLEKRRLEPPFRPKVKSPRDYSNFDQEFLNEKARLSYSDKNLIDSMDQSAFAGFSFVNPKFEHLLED
# Results are given in words; binding and its absence hold for the method and conditions named. In cells and extracts the contact can be indirect. Some entries that bind do so weakly or less than the wild type.
# Key:
# Assay in all cases: co-IP; endogenous proteins from total cell extracts (lysis: 50 mM Tris, 150 mM NaCl, 0.5% Triton X-100, pH 7.5; 1 mg/ml extract); 2 µg/ml primary antibody overnight at 4°C, protein A-sepharose 2 h; washes with 0.6 M NaCl pH 8.3 and 0.15 M NaCl pH 7.5; Western blot of the precipitates
# [1] = biological target: Protein kinase C delta (PKCδ) from IEC-18 cells (rat (endogenous in IEC-18)) (UniProt P09215)
# [2] = biological target: Adenomatous polyposis coli (APC) protein, normal, from IEC-18 cells (rat (endogenous in IEC-18)) (UniProt P70478)
# [3] = biological target: Adenomatous polyposis coli (APC) protein, wild type, from RKO cells (human (endogenous in RKO)) (UniProt P25054)
substance,measurement,setting,value
"Adenomatous polyposis coli (APC) protein, normal, from IEC-18 cells (from UniProt P70478 1-2842)",binding,[1],binds
Protein kinase C delta (PKCδ) from IEC-18 cells (from UniProt P09215 1-673) (enzyme),binding,[2],binds
Protein kinase C delta (PKCδ) from human colon tumor cell lines (from UniProt Q05655 1-676) (enzyme),binding,[3],binds
Protein kinase C epsilon (PKCε) from IEC-18 cells (from UniProt P09216 1-737) (enzyme),binding,[2],no binding
Protein kinase C epsilon (PKCε) from human colon tumor cell lines (from UniProt Q02156 1-737) (enzyme),binding,[3],no binding
